# In PubChem BioAssay AID2551 (National Center for Advancing Translational Sciences (NCATS), 2010):
# Amino acid sequences for entries named in this document (tags omitted). A change or cut given only in a name is not applied to a line headed by its entry.
# UniProt P51450: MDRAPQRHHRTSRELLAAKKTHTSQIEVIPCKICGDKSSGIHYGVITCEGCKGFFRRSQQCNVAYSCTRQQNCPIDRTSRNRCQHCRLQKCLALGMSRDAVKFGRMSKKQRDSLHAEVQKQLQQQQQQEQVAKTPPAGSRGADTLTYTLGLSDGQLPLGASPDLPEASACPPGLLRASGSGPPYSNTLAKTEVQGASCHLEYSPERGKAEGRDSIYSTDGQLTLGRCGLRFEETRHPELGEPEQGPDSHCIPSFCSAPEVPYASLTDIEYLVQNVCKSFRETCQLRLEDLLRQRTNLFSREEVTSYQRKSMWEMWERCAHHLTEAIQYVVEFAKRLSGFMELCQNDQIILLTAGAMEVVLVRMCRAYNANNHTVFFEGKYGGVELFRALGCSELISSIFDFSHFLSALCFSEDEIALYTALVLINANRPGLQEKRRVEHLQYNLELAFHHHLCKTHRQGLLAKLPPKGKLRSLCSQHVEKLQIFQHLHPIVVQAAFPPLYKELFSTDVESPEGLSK
# Out of some 310,000 compounds screened, about 17,000 (5.5%) were called active. This list was built around the results that the source calls inconclusive (neither active nor inactive); the mix of calls is not that of the screen. Calls follow the shape of the dose curve; as a rule, active = well fitted inhibition curve with a large enough effect; inconclusive = small, poorly fitted or top-dose-only effect, or effect the other way; inactive = no such curve, though single readings can be large or run the other way. Potencies of inconclusive entries are doubtful fits and often do not repeat.
# Target: Nuclear receptor ROR-gamma (Mus musculus) (UniProt P51450)
# Test: qHTS for inhibitors of ROR gamma transcriptional activity; also: nearly all actives have a fitted effect of over 60% in size
# Details: Drosophila S2 Gal4-RORgamma UAS-luciferase reporter, 20 h; activity change, negative = inhibition: at 53.6 µM (top of the series)
# Outline: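 Read-out: Photinus luciferase luminescence; inhibitors lower reporter signal. Insect Schneider cells with Gal4-ROR gamma fusion under metallothionein promoter, UAS reporter; 700 uM final copper sulfate induction, 20 hr, ambient temperature.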
# % is scaled to controls: 0 for no effect and ±100 for the full control effect; potency is read from the fitted curve at half-maximal effect.
Structure (SMILES),Potency,"activity change, negative = inhibition"
O=C(CC1C(=O)NCCN1Cc1ccc(F)cc1)NCCOc1cccnc1 (stereo not given),inactive,–
CCOC(=O)C1CCN(S(=O)(=O)c2cccc3nonc23)CC1,inactive,–
CC1=C2C(=O)OC(c3ccoc3)C2(C)CCC1 (stereo not given),"inconclusive: 5.62 µM [activator, full curve]",–
Cc1ccc2c(cnn2C(=O)CCCC(=O)NCc2ccc(F)cc2)c1,inactive,–
C/C(CC(=O)Nc1ccc(Cl)cc1Cl)=N\NC(=O)c1ccco1,"inconclusive: 22.4 µM [inhibitor, single point]",–
CCOC(=O)c1ccc(NC(=S)Nc2ccc(Cl)cn2)cc1,active: 2.24 µM,–
CCOC(=O)COc1ccc(C(c2c(C)[nH][nH]c2=O)c2c(C)[nH][nH]c2=O)cc1,"inconclusive: 14.1 µM [activator, single point]",–
COc1cc2c(cc1OC)-c1cc3nc4ccccc4nc3n1C(C)(C)C2,"inconclusive: 28.2 µM [inhibitor, partial curve]",–
O=C(NNc1ccccc1F)C1CCC1,"inconclusive: 7.94 µM [activator, full curve, poor fit]",–
Cc1ccc(-n2ncc3c2CC(C)(C)CC3NC(=O)CCc2ccncc2)cc1 (stereo not given),inactive,–
O=C(c1cc(COc2ccc(F)cc2F)on1)N1C[C@H]2CC[C@H]1C2,"inconclusive: 11.2 µM [activator, single point]",–
CC(C)c1nc(CN(C)C(=O)N[C@H](C(=O)N[C@@H](Cc2ccccc2)C[C@H](O)[C@H](Cc2ccccc2)NC(=O)OCc2cncs2)C(C)C)cs1,"inconclusive: 14.1 µM [activator, single point]",–
Cc1ccc(NS(=O)(=O)c2ccc3c(c2)NC(=O)CCS3)c(C)c1,inactive,–
CSc1ccc(CN2C(=O)NC3(CCCCCC3)C2=O)cc1,"inconclusive: 22.4 µM [activator, single point]",–
O=C(CSc1nc2ccccc2c(=O)n1-c1ccccc1)N1CCc2ccccc21,"inconclusive: 2.51 µM [activator, single point]",–
CN(CCCC[C@H](CNCc1ccc(-c2ccccc2)cc1)N1C[C@H](c2ccccc2)N(CCc2ccc(Cl)c(Cl)c2)C(=O)C1=O)Cc1ccc(-c2ccccc2)cc1,"inconclusive: 35.5 µM [inhibitor, single point]",–
CC1CCN(C(=O)c2cc(-c3ccc(Cl)c(Cl)c3)on2)CC1,"inconclusive: 15.8 µM [activator, single point]",–
CCSC1=N/C(=C\c2ccccc2)C(=O)N1c1ccc(OC)cc1,inactive,–
COC(=O)NC(CC(C)=O)c1ccccc1 (stereo not given),–,inactive: -18.9% [at 10 µM]
CCCCn1c(SCC2CCCO2)nc2cc(S(N)(=O)=O)ccc21 (stereo not given),"inconclusive: 17.8 µM [activator, single point]",–
C=CCn1c(SCc2cc(=O)n3ccsc3n2)nc2cc(Cl)ccc2c1=O,inactive,–
COc1ccc(OCCSc2n[nH]c(N)n2)cc1,"inconclusive: 35.5 µM [activator, single point]",–
Cc1ccc(S(=O)(=O)N(C)c2nc3ccccc3[nH]c2=S)cc1,active: 4.47 µM,–
CC(=O)Nc1nonc1-c1nc2ccccc2n1C,"inconclusive: 0.891 µM [inhibitor, partial curve]",–
CN1CCC(NCCC(c2ccc(F)cc2)c2ccc(Cl)cc2)CC1 (stereo not given),"inconclusive: 15.8 µM [inhibitor, single point]",–

Structure (SMILES),Potency,"activity change, negative = inhibition"
CSc1cccc(NC(=S)N2CCCN(Cc3ccccc3F)C2)c1,"inconclusive: 11.2 µM [inhibitor, single point]",–
CN1C(=O)C(=C2CCCCCC2)SC1=S,"inconclusive: 35.5 µM [inhibitor, single point]",–
O=c1cc(CSc2nnnn2-c2ccccc2)nc2nc[nH]n12,"inconclusive: 2.24 µM [activator, full curve, poor fit]",–
Oc1ccccc1Cn1c(-c2ccccc2O)nc2ccccc21,"inconclusive: 22.4 µM [inhibitor, single point]",–
Cc1nnc(SCC(=O)NC2CCCCC2C)s1 (stereo not given),inactive,–
CN1CCN(c2nnc(-c3ccccc3)c(-c3ccccc3)n2)CC1,inactive,–
COc1ccc(C(=O)c2sc3nc(-c4ccccc4)ccc3c2N)cc1,"inconclusive: 35.5 µM [activator, single point]",–
Cc1ccc(O)c(CC(C)C)n1,inactive,–
Cc1ccccc1OCC(=O)N1N=C(c2cccnc2)CC1(O)C(F)(F)F (stereo not given),"inconclusive: 14.1 µM [inhibitor, single point]",–
COc1ccc2c(Cl)c(C(=O)N/N=C/c3ccc4c(c3)OCO4)sc2c1,active: 1.12 µM,–
CN(C)c1ccc(/C=N/N(CCO)C2=NS(=O)(=O)c3ccccc32)cc1,inactive,–
COc1ccccc1CNc1ncnc2ccc(-c3ccc4c(c3)OCO4)cc12,"inconclusive: 20 µM [activator, single point]",–
Cc1ccc(S(=O)(=O)N(C)CC(=O)Nc2cccc3c2CCCC3)cc1,"inconclusive: 35.5 µM [activator, single point]",–
CCN(CC)S(=O)(=O)c1ccc(NC(=O)CSc2cccc[n+]2[O-])cc1,inactive,–
Cn1nc(Oc2nc(N3CCOCC3)nc(N3CCOCC3)n2)ccc1=O,inactive,–
O=C(NNC(=O)c1ccc(F)cc1F)c1ccc2c(c1)OCO2,"inconclusive: 0.891 µM [activator, full curve, poor fit]",–
O=C(/C=C/c1ccc(F)cc1)NCCC1=CCCCC1,inactive,–
COc1cccc(NC(=O)CSc2nnc(-c3cc(-c4ccccn4)nc4ccccc34)o2)c1,"inconclusive: 31.6 µM [activator, single point]",–
Cc1ccc(SC(CC(=O)c2ccc(F)cc2)C(=O)O)cc1 (stereo not given),"inconclusive: 12.6 µM [inhibitor, single point]",–
COc1cc(C(=O)NCCNc2nc3cc(C)ccc3cc2C#N)cc(OC)c1OC,"inconclusive: 0.708 µM [activator, full curve]",–
S=C(NCc1ccccc1)NNc1nc2ccccc2[nH]1,active: 4.47 µM,–
O=c1cc(-c2ccc(Cl)cc2)[nH][nH]1,"inconclusive: 8.91 µM [activator, partial curve]",–
Cc1ccc(-c2c(C)n([O-])c3c([n+]2=O)CCCC3)o1,inactive,–
Cc1cnc(C(=O)OCc2c(C)cc(C(C)(C)C)cc2C)cn1,"inconclusive: 15.8 µM [activator, single point]",–
Cc1ccc(CS(=O)(=O)Cc2ccc(C(=O)NC3CCCCCC3)o2)cc1,"inconclusive: 10 µM [activator, partial curve]",–

# Structural class: those above with a furan ring, fused or not.
Structure (SMILES),Potency,"activity change, negative = inhibition"
CC1=C2C(=O)OC(c3ccoc3)C2(C)CCC1 (stereo not given),"inconclusive: 5.62 µM [activator, full curve]",–
C/C(CC(=O)Nc1ccc(Cl)cc1Cl)=N\NC(=O)c1ccco1,"inconclusive: 22.4 µM [inhibitor, single point]",–
Cc1ccc(-c2c(C)n([O-])c3c([n+]2=O)CCCC3)o1,inactive,–
Cc1ccc(CS(=O)(=O)Cc2ccc(C(=O)NC3CCCCCC3)o2)cc1,"inconclusive: 10 µM [activator, partial curve]",–

# (next part)

Structure (SMILES),Potency,"activity change, negative = inhibition"
CCCCCCNC(=O)N1C/C=C\C(c2ccc(OC)cc2)N(Cc2ccc(F)cc2)C(=O)C1 (stereo not given),"inconclusive: 15.8 µM [activator, single point]",–
COC(=O)[C@@]1(Cc2ccc(OC)cc2)[C@H]2c3cc(C(=O)N4CCCC4)n(CCc4c[nH]c5ccc(O)cc45)c3C[C@H]2CN1C(=O)c1ccccc1,"inconclusive: 11.2 µM [activator, single point]",–
Cc1ccc(S(=O)(=O)Oc2ccccc2/C=N/NC(=O)c2c(Cl)cnn2C)cc1,active: 3.16 µM,–
Cc1ccc(C(=O)NC(=S)Nc2c(C)ccc3nsnc23)cc1,active: 10 µM,–
O=C(O)c1ccccc1-c1nc2cc(Cl)ccc2c(=O)n1O,inactive,–
COc1ccc(CNC(=O)CNS(=O)(=O)c2ccc(Cl)cc2)cc1,"inconclusive: 35.5 µM [activator, single point]",–
Fc1cccc(/C=N/NC(=S)Nc2ccccc2Cl)c1,active: 0.708 µM,–
O=C(NCCc1c[nH]c2ccccc12)c1cnccn1,"inconclusive: 1.78 µM [activator, full curve]",–
C#CCOc1ccc2c(C)cc(=O)oc2c1,"inconclusive: 6.31 µM [activator, single point]",–
O=C(NCc1ccccc1)C1=C[C@@H](c2csc3ccccc23)C[C@@H](OCCCCO)O1,"inconclusive: 3.55 µM [activator, full curve]",–
Nc1ccccc1Sc1nc2ccccc2[nH]1,active: 3.55 µM,–
O=C(CSc1ccc(Cl)cc1)N1CCN(c2ncc(C(F)(F)F)cc2Cl)CC1,"inconclusive: 15.8 µM [activator, single point]",–
Cn1cnnc1SCc1ccc(-c2ccc(Br)cc2)o1,"inconclusive: 2.51 µM [inhibitor, single point]",–
NNC(=O)c1ccc([N+](=O)[O-])c(CS(=O)(=O)c2ccc(Cl)cc2)c1,"inconclusive: 35.5 µM [inhibitor, single point]",–
Cc1c(Nc2cc(Cl)c3nonc3c2[N+](=O)[O-])c(=O)n(-c2ccccc2)n1C,active: 3.98 µM,–
c1ccc(-c2nn[nH]n2)cc1,inactive,–
CC(C)(C)C(=O)Nc1ccc(C(=O)N/N=C/c2ccccc2OC(=O)c2ccc(Cl)cc2)cc1,inactive,–
Cc1cc(C(=O)CN2C(=O)NC(CC(C)C)C2=O)c(C)n1-c1ccccc1F (stereo not given),inactive,–
CCCCNC(=O)CC1N=C2c3ccccc3N=C(SCC(=O)Nc3ccccc3C)N2C1=O (stereo not given),inactive,–
Cc1csc(NC(=O)CSc2nnc(-c3ccoc3C)o2)n1,inactive,–
COc1cc(CNCCN2CCOCC2)ccc1OCc1c(Cl)cccc1Cl,inactive,–
CCOc1ccc(Br)cc1CSC(=N)N,"inconclusive: 6.31 µM [activator, single point]",–
C/C(=N\NC(=S)NC(C)C)c1ccc(-n2ccnc2)cc1,active: 5.62 µM,–
CCC(C)[C@H]1CNC(=S)N1CCC12CC3CC(CC(C3)C1)C2 (stereo not given in full),active: 0.891 µM,–
O=[N+]([O-])c1nn(-c2ccc(Cl)cc2)n(O)c1=NCc1ccncc1,inactive,–
